In patent publication US20160317671A1 one finds binding data, which are given here for 1 substance.

By UniProt entry, the sequences of proteins in these tests, tags left out. Where a name states a change or a piece, a line headed by the entry shows the natural chain unless it says otherwise.
UniProt P40763: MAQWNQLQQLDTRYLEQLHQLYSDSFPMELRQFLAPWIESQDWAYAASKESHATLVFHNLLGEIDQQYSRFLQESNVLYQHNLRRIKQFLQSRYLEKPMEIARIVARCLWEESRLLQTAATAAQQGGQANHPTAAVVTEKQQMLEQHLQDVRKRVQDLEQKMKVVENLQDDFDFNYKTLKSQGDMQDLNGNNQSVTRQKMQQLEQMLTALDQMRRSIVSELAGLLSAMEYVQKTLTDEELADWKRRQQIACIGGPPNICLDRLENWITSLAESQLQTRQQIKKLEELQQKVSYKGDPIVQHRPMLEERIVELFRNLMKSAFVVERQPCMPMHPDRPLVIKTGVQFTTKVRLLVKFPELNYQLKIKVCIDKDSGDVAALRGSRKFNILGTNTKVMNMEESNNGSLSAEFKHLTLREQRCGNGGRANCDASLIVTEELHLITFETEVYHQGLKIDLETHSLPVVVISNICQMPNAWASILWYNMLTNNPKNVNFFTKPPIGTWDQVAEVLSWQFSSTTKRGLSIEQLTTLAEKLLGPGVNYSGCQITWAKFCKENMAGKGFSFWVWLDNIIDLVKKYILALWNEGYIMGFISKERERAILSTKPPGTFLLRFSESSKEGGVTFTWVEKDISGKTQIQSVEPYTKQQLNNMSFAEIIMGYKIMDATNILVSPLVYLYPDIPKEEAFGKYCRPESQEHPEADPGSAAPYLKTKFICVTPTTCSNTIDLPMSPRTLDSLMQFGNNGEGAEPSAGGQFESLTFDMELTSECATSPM

Results are given in words; binding and its absence hold for the method and conditions named. Binding seen in cells or lysates may run through a third protein. Some results given as binding are weak or reduced against the parent protein; the word gives no strength.

This assay deals with T1, exportin 7 (endogenous, human U251 cells) (human) (UniProt Q9UIA9).
T1 sequence (looked up): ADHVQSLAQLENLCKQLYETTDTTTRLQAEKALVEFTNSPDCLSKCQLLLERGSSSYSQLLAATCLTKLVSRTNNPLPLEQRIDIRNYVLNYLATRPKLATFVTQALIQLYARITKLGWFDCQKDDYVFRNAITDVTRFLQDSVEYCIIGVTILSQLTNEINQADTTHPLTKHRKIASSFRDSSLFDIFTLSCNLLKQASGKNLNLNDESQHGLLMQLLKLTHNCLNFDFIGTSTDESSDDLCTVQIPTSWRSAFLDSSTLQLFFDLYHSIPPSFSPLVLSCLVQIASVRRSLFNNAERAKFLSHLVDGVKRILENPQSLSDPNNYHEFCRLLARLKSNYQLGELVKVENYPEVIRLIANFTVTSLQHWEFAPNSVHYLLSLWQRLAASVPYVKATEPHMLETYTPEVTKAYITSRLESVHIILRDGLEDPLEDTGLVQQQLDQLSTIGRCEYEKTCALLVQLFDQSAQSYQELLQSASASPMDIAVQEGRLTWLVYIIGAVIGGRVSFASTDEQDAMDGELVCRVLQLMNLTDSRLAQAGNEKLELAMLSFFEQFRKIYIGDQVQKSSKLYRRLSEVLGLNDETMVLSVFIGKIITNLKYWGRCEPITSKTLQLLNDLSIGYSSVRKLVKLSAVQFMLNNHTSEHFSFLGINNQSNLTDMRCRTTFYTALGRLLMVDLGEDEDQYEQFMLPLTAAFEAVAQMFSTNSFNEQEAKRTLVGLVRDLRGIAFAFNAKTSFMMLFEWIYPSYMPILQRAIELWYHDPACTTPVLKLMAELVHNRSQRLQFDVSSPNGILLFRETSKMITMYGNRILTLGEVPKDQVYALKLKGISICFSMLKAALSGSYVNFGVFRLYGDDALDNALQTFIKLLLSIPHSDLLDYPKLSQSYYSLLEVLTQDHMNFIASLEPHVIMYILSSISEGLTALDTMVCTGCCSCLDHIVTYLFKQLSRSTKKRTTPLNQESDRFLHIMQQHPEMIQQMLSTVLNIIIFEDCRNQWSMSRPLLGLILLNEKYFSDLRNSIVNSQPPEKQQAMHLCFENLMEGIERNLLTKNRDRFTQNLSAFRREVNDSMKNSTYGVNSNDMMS
Nature of the assay: co-precipitation from whole cell lysates of U251 cells overexpressing STAT3 (wild type lane of FIG. 2D).

Regarding “STAT3 overexpressed in U251 human tumor cells (from UniProt P40763 2-770)”, the binding result is “binds”.
